Laboratory results: the supplement of paper PMC8728848
Some of the results follow.

Legend:
Experiment in all cases: glycan array binding signal (z-score within array); higher = stronger binding
Details in all cases: glycan notation: IUPAC condensed, linker removed
[1] = target: Neu5Ac(a2-6)Gal(b1-4)GlcNAc(b1-2)Man(a1-3)[Man(a1-6)]Man(b1-4)GlcNAc(b1-4)GlcNAc
In short: (§1)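 Glycan array data came from 3228 arrays in the Consortium for Functional Glycomics database, and only arrays with an available protein sequence were kept. Glycan names were put into IUPAC-condensed notation, and columns mapping to the same glycan were averaged. The binding signal is a within-array Z-score, averaged across arrays of one protein sequence run at different concentrations or buffers and across linkers. A negative Z-score can be read as non-binding.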

[2] = target: Neu5Ac(a2-6)Gal(b1-4)GlcNAc(b1-2)Man(a1-3)[Neu5Ac(a2-3)Gal(b1-4)GlcNAc(b1-2)Man(a1-6)]Man(b1-4)GlcNAc(b1-4)GlcNAc
In short: as §1

[3] = target: Neu5Ac(a2-6)Gal(b1-4)GlcNAc(b1-2)Man(a1-3)[Neu5Ac(a2-6)Gal(b1-4)GlcNAc(b1-2)Man(a1-6)]Man(b1-4)GlcNAc(b1-4)GlcNAc
In short: as §1

[4] = target: Neu5Ac(a2-6)Gal(b1-4)GlcNAc(b1-2)Man(a1-3)[Neu5Ac(a2-6)Gal(b1-4)GlcNAc(b1-2)Man(a1-6)]Man(b1-4)GlcNAc(b1-4)[Fuc(a1-6)]GlcNAc
In short: as §1

[5] = target: Neu5Ac(a2-6)Gal(b1-4)GlcNAc(b1-2)Man(a1-6)Man(b1-4)GlcNAc(b1-4)GlcNAc
In short: as §1

[6] = target: Neu5Ac(a2-6)Gal(b1-4)GlcNAc(b1-2)Man(a1-6)[Gal(b1-4)GlcNAc(b1-2)Man(a1-3)]Man(b1-4)GlcNAc(b1-4)GlcNAc
In short: as §1

[7] = target: Neu5Ac(a2-6)Gal(b1-4)GlcNAc(b1-2)Man(a1-6)[GlcNAc(b1-2)Man(a1-3)]Man(b1-4)GlcNAc(b1-4)GlcNAc
In short: as §1

[8] = target: Neu5Ac(a2-6)Gal(b1-4)GlcNAc(b1-2)Man(a1-6)[Man(a1-3)]Man(b1-4)GlcNAc(b1-4)GlcNAc
In short: as §1

[9] = target: Neu5Ac(a2-6)Gal(b1-4)GlcNAc(b1-2)[Neu5Ac(a2-6)Gal(b1-4)GlcNAc(b1-4)]Man(a1-3)[GlcNAc(b1-4)][Neu5Ac(a2-6)Gal(b1-4)GlcNAc(b1-2)[Neu5Ac(a2-6)Gal(b1-4)GlcNAc(b1-6)]Man(a1-6)]Man(b1-4)GlcNAc(b1-4)GlcNAc
In short: as §1

[10] = target: Neu5Ac(a2-6)Gal(b1-4)GlcNAc(b1-2)[Neu5Ac(a2-6)Gal(b1-4)GlcNAc(b1-4)]Man(a1-3)[GlcNAc(b1-4)][Neu5Ac(a2-6)Gal(b1-4)GlcNAc(b1-4)Man(a1-6)]Man(b1-4)GlcNAc(b1-4)GlcNAc
In short: as §1

[11] = target: Neu5Ac(a2-6)Gal(b1-4)GlcNAc(b1-2)[Neu5Ac(a2-6)Gal(b1-4)GlcNAc(b1-6)]Man(a1-6)[Neu5Ac(a2-6)Gal(b1-4)GlcNAc(b1-2)Man(a1-3)][GlcNAc(b1-4)]Man(b1-4)GlcNAc(b1-4)GlcNAc
In short: as §1

[12] = target: Neu5Ac(a2-6)Gal(b1-4)GlcNAc(b1-3)Gal(b1-3)GlcNAc
In short: as §1

[13] = target: Neu5Ac(a2-6)Gal(b1-4)GlcNAc(b1-3)Gal(b1-4)GlcNAc
In short: as §1

[14] = target: Neu5Ac(a2-6)Gal(b1-4)GlcNAc(b1-3)Gal(b1-4)GlcNAc(b1-2)Man(a1-3)[Neu5Ac(a2-6)Gal(b1-4)GlcNAc(b1-3)Gal(b1-4)GlcNAc(b1-2)Man(a1-6)]GalNAc
In short: as §1

[15] = target: Neu5Ac(a2-6)Gal(b1-4)GlcNAc(b1-3)Gal(b1-4)GlcNAc(b1-3)Gal(b1-4)GlcNAc
In short: as §1

[16] = target: Neu5Ac(a2-6)Gal(b1-4)GlcNAc(b1-3)Gal(b1-4)GlcNAc(b1-3)Gal(b1-4)GlcNAc(b1-2)Man(a1-3)[Neu5Ac(a2-6)Gal(b1-4)GlcNAc(b1-3)Gal(b1-4)GlcNAc(b1-3)Gal(b1-4)GlcNAc(b1-2)Man(a1-6)]GalNAc
In short: as §1

[17] = target: Neu5Ac(a2-6)Gal(b1-4)GlcNAc(b1-3)Gal(b1-4)GlcNAc(b1-3)GalNAc
In short: as §1

[18] = target: Neu5Ac(a2-6)Gal(b1-4)GlcNAc(b1-3)Gal(b1-4)GlcNAc(b1-3)[Neu5Ac(a2-6)Gal(b1-4)GlcNAc(b1-3)Gal(b1-4)GlcNAc(b1-6)]GalNAc
In short: as §1

[19] = target: Neu5Ac(a2-6)Gal(b1-4)GlcNAc(b1-3)Gal(b1-4)GlcNAc(b1-6)[Gal(b1-3)]GalNAc
In short: as §1

[20] = target: Neu5Ac(a2-6)Gal(b1-4)GlcNAc(b1-3)Gal(b1-4)[Fuc(a1-3)]GlcNAc(b1-3)Gal(b1-4)[Fuc(a1-3)]GlcNAc
In short: as §1

[21] = target: Neu5Ac(a2-6)Gal(b1-4)GlcNAc(b1-3)GalNAc
In short: as §1

[22] = target: Neu5Ac(a2-6)Gal(b1-4)GlcNAc(b1-3)[Neu5Ac(a2-6)Gal(b1-4)GlcNAc(b1-6)]GalNAc
In short: as §1

[23] = target: Neu5Ac(a2-6)Gal(b1-4)GlcNAc(b1-6)GalNAc
In short: as §1

[24] = target: Neu5Ac(a2-6)Gal(b1-4)GlcNAc(b1-6)[Gal(b1-3)GlcNAc(b1-3)]Gal(b1-4)Glc
In short: as §1

[25] = target: Neu5Ac(a2-6)Gal(b1-4)GlcNAc(b1-6)[Gal(b1-3)]GalNAc
In short: as §1

[26] = target: Neu5Ac(a2-6)Gal(b1-4)GlcNAc6S
In short: as §1

Neu5Ac(a2-6)GalNAc = target: Neu5Ac(a2-6)GalNAc
In short: as §1

[27] = target: Neu5Ac(a2-6)GalNAc(b1-4)GlcNAc
In short: as §1

[28] = target: Neu5Ac(a2-6)GalNAc(b1-4)GlcNAc6S
In short: as §1

[29] = target: Neu5Ac(a2-6)GlcNAc(b1-4)GlcNAc
In short: as §1

B1: CD4 (Rattus norvegicus), P05540 (protein)
chain: MCRGFSFRHLLPLLLLQLSKLLVVTQGSTSITAYKSEGESAEFSFPLNLGEESLQGELRWKAEKAPSSQSWITFSLKNQKVSVQKSTSNPKFQLSETLPLTLQIPQVSLQFAGSGNLTLTLDRGILYQEVNLVVMKVTQPDSNTLTCEVMGPTSPKMRLILKQENQEARVSRQEKVIQVQAPEAGVWQCLLSEGEEVKMDSKIQVLSKGLNSGGGSGGGTGGGDLAPQMLRELQETNAALQDVRELLRQQVKEITFLKNTVMECDACGLDRNLPPLAPLGPHPETLVKVKDAEDQLGARVGYIELDLNSGKILESFRPEERFPMMSTFKVLLCGAVLSRIDAGQEQLGRRIHYSQNDLVEYSPVTEKHLTDGMTVRELCSAAITMSDNTAANLLLTTIGGPKELTAFLHNMGDHVTRLDRWEPELNEAIPNDERDTTMPVAMATTLRKLLTGELLTLASRQQLIDWMEADKVAGPLLRSALPAGWFIADKSGAGERGSRGIIAALGPDGKPSRIVVIYTTGSQATMDERNRQIAEIGASLIKHW
- glycan array binding signal (z-score) [1]: -0.151
- glycan array binding signal (z-score) [2]: -1.1
- glycan array binding signal (z-score) [3]: -0.21
- glycan array binding signal (z-score) [4]: -0.435
- glycan array binding signal (z-score) [5]: -0.621
- glycan array binding signal (z-score) [6]: -0.832
- glycan array binding signal (z-score) [7]: -0.98
- glycan array binding signal (z-score) [8]: -0.427
- glycan array binding signal (z-score) [9]: 0.552
- glycan array binding signal (z-score) [10]: 0.125
- glycan array binding signal (z-score) [11]: -1.55
- glycan array binding signal (z-score) [12]: -0.948
- glycan array binding signal (z-score) [13]: -0.557
- glycan array binding signal (z-score) [14]: 1.53
- glycan array binding signal (z-score) [15]: -0.785
- glycan array binding signal (z-score) [16]: 0.563
- glycan array binding signal (z-score) [17]: -0.886
- glycan array binding signal (z-score) [18]: -1.11
- glycan array binding signal (z-score) [19]: -0.127
- glycan array binding signal (z-score) [20]: 1.64
- glycan array binding signal (z-score) [21]: 1.25
- glycan array binding signal (z-score) [22]: 0.831
- glycan array binding signal (z-score) [23]: -1.36
- glycan array binding signal (z-score) [24]: 0.644
- glycan array binding signal (z-score) [25]: 0.934
- glycan array binding signal (z-score) [26]: 0.111
- glycan array binding signal (z-score) (Neu5Ac(a2-6)GalNAc): -0.467
- glycan array binding signal (z-score) [27]: 0.314
- glycan array binding signal (z-score) [28]: 0.186
- glycan array binding signal (z-score) [29]: -1.34
